This note sets out measurements from paper PMC11873932.

Amino acid sequences for entries named in this document (tags omitted).
UniProt P11801: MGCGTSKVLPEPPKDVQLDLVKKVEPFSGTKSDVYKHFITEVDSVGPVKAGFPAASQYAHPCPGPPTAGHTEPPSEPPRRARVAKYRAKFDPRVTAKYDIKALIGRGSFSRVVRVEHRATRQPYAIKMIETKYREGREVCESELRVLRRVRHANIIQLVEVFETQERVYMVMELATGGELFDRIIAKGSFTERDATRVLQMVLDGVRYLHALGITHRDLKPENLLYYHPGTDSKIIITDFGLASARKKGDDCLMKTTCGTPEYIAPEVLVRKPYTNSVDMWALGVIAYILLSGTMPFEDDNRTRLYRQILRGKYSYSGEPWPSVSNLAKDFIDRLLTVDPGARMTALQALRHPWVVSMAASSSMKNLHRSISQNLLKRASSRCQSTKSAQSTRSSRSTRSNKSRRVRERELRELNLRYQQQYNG

Assay [1] concerns the target Protein Serine Kinase H1 (PSKH1), recombinant full-length, wild type (human) (UniProt P11801). Kind of assay: cross-linking; SDA (NHS-Diazirine, 1 mg/mL) cross-linking mass spectrometry; recombinant full-length PSKH1 with Calmodulin, RCN3 or UNC119B at 1:2 molar ratio; 30 min in the dark at room temperature, UV 365 nm; bands cut from reducing SDS-PAGE, trypsin; both purified.

Assay [2] shares this target. Put plainly: far-Western, overlay or dot blot; Far-Western with recombinant PSKH1 and His6-CaM or His6-RCN3, Ca2+ 500 uM, probed with anti-His6 horseradish peroxidase antibody; both purified.
For assay [3] the target is unchanged. Kind of assay: far-Western, overlay or dot blot; Far-Western with recombinant PSKH1 and His6-CaM or His6-RCN3 in the presence of EGTA (10 mM), probed with anti-His6 horseradish peroxidase antibody; both purified.

These are yes or no findings as the source states them, for the method shown. Some entries that bind do so weakly or less than the wild type. Tags and fused reporters may be left off the sequences shown.

B1: Reticulocalbin-3 (RCN3), recombinant (His6-RCN3) (protein, UniProt Q96D15 21-328)
chain: KPSPDAGPHGQGRVHQAAPLSDAPHDDAHGNFQYDHEAFLGREVAKEFDQLTPEESQARLGRIVDRMDRAGDGDGWVSLAELRAWIAHTQQRHIRDSVSAAWDTYDTDRDGRVGWEELRNATYGHYAPGEEFHDVEDAETYKKMLARDERRFRVADQDGDSMATREELTAFLHPEEFPHMRDIVIAETLEDLDRNKDGYVQVEEYIADLYSAEPGEEEPAWVQTERQQFRDFRDLNKDGHLDGSEVGHWVLPPAQDQPLVEANHLLHESDTDKDGRLSKAEILGNWNMFVGSQATNYGEDLTRHHDEL
With B1, the figures for the binding entry in assay [1], in assay [2] and in assay [3] were “binds”, “binds” and “no binding (condition: with 10 mM EGTA)”, respectively.
